{"source": "PubChem BioAssay AID504834", "about": "(National Center for Advancing Translational Sciences (NCATS), 2011)", "note": "In all, about 320,000 compounds went through this assay and about 22,000 (6.9%) were called active. The inconclusive results got no clear call from the source; some entries with a clear call stand among them for comparison. Calls come from the whole dose curve; as a rule, active = well fitted inhibition curve with a large enough effect; inconclusive = small, poorly fitted or top-dose-only effect, or another doubt; inactive = no such curve, though single readings can be large or run the other way. Potencies of inconclusive entries are doubtful fits and often do not repeat. Potency is the fitted concentration of half-maximal effect.", "data": [{"experiment": "Primary qHTS for delayed death inhibitors of the malarial parasite plastid, 96 hour incubation", "details": "P. falciparum luciferase reporter growth; series mostly up to 28.7 µM", "method_in_brief": "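Erythrocytes infected with luciferase-expressing P. falciparum were dispensed at 2% hematocrit and 0.05% parasitemia (final), then incubated with compounds 96 hours at 37 C in 5% CO2. Luminescence after detection reagent addition reported growth.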", "values": [{"smiles": "Cc1cc(O)c(C(C)C)cc1N=Nc1ccccc1C(=O)O", "Potency": "inconclusive: 0.928 µM [inhibitor, full curve]"}, {"smiles": "Cc1ccc(C(=O)c2cc([N+](=O)[O-])ccc2N2CCN(C)CC2)cc1", "Potency": "inconclusive: 11.7 µM [inhibitor, partial curve, poor fit]"}, {"smiles": "COC(=O)CSc1cc(C(=O)c2nccn2C)c2ccccc2n1", "Potency": "inconclusive: 16.5 µM [inhibitor, single point]"}, {"smiles": "CCN(CC)S(=O)(=O)c1ccc(OCC(=O)NC(=O)Cc2ccccc2)c([N+](=O)[O-])c1", "Potency": "inconclusive: 18.5 µM [inhibitor, partial curve, poor fit]"}, {"smiles": "Cc1cc(C)c(C#N)c(SCC(=O)Nc2cccc(S(=O)(=O)N3CCCC3)c2)n1", "Potency": "inconclusive: 5.22 µM [inhibitor, partial curve, poor fit]"}, {"smiles": "COCCOC(=O)c1c(NC(=O)CNC2CCCc3ccccc32)sc(C(N)=O)c1C", "note": "(configuration not stated)", "Potency": "inconclusive: 2.94 µM [inhibitor, full curve]"}, {"smiles": "COCCCC1CCN(C(=O)CCc2nnc(CCCCc3ccccc3)o2)CC1", "Potency": "inconclusive: 3.29 µM [inhibitor, full curve]"}, {"smiles": "COc1ccnc(CN(C)C(=O)C2CCC(=O)N(CCN(C)C)C2)c1", "note": "(configuration not stated)", "Potency": "inconclusive: 14.7 µM [inhibitor, single point]"}, {"smiles": "COc1ccc(CCNS(=O)(=O)c2c(C)[nH]c(C)c2C(=O)N2CCCCC2)cc1OC", "Potency": "inconclusive: 18.5 µM [inhibitor, single point]"}, {"smiles": "CC(C)c1cc(CN2CCOCC2)cc(C(C)C)c1O", "Potency": "active: 10.4 µM"}, {"smiles": "Nc1cccc(Nc2nc(OC(C(F)(F)F)C(F)(F)F)nc(OC(C(F)(F)F)C(F)(F)F)n2)c1", "Potency": "inconclusive: 3.29 µM [inhibitor, single point]"}, {"smiles": "COc1ccc(/C=N/NC(=O)c2ccc(O)cc2O)cc1CSc1ccccn1", "Potency": "inconclusive: 18.5 µM [inhibitor, single point]"}, {"smiles": "O=C(c1ccc(N2CCN(C3CC(=O)N(Cc4cccs4)C3=O)CC2)cc1)c1cccnc1", "note": "(configuration not stated)", "Potency": "inconclusive: 18.5 µM [inhibitor, single point]"}, {"smiles": "CCOC(=O)c1c(C)[nH]c(-c2csc(N)n2)c1C", "Potency": "inconclusive: 18.5 µM [inhibitor, single point]"}, {"smiles": "Cn1cc(/C=C(\\NC(=O)c2ccccc2)C(=O)NCCCN2CCOCC2)c2ccccc21", "Potency": "inconclusive: 18.5 µM [inhibitor, single point]"}, {"smiles": "CCCCC1=CC2=CC(=O)C(C)(OC(=O)CC)C(=O)C2=CN1C1CCCCC1", "note": "(configuration not stated)", "Potency": "active: 9.28 µM"}, {"smiles": "COc1ccc(/C=C(\\NC(=O)c2ccc(OC)cc2)C(=O)Nc2ccc(C(=O)O)cc2)cc1", "Potency": "inconclusive: 10.4 µM [inhibitor, single point]"}, {"smiles": "Cc1ccc(-c2[nH]ncc2/C=C(\\C#N)C(=O)NC2CCCCC2)cc1", "Potency": "inconclusive: 8.28 µM [inhibitor, partial curve, poor fit]"}, {"smiles": "Cc1ccc(C(=O)N/C(=C/c2cccnc2)C(=O)N2CCCCCC2)cc1", "Potency": "inconclusive: 18.5 µM [inhibitor, single point]"}, {"smiles": "O=C(O)c1ccccc1N/N=C/c1c(Sc2nnnn2-c2ccccc2)nc2ccccn2c1=O", "Potency": "active: 0.586 µM"}, {"smiles": "CC(Cc1ccccn1)NC(=O)CCc1nnc(C2CCCCC2)o1", "note": "(configuration not stated)", "Potency": "active: 13.1 µM"}, {"smiles": "C[C@@H]1CC[C@@]23COC(=O)C2=CCC[C@@H]3[C@@]1(C)CC/C(=C/CO)CO", "Potency": "inconclusive: 10.4 µM [inhibitor, single point]"}, {"smiles": "CCCC(=O)NC(c1ccc(Cl)cc1)c1ccc2cccnc2c1O", "note": "(configuration not stated)", "Potency": "inactive"}, {"smiles": "COc1ccccc1CNCC(=O)Nc1cc(S(=O)(=O)N2CCCCCC2)ccc1Cl", "Potency": "inconclusive: 18.5 µM [inhibitor, single point]"}, {"smiles": "Cc1cccc(Nc2nc(-c3ccc(F)c(C)c3)cs2)n1", "Potency": "inactive"}, {"smiles": "Cc1cccc(C(=O)Nc2nnc(-c3ccc(C(C)(C)C)cc3)s2)c1", "Potency": "inactive"}, {"smiles": "COc1ccc(C2=C(O)C(C)N(c3ccccc3)C2=N)cc1OC", "note": "(configuration not stated)", "Potency": "inconclusive: 18.5 µM [inhibitor, single point]"}, {"smiles": "CC(=O)OC(C)(CCC(C)(OC(C)=O)C(C)=O)C(C)=O", "note": "(configuration not stated)", "Potency": "inactive"}, {"smiles": "Cc1ccc(Cl)cc1Nc1nc(-c2sc(NC(=O)C(C)(C)C)nc2C)cs1", "Potency": "active: 5.22 µM"}, {"smiles": "O=C(/C=C/C=C/c1ccccc1)CC1(O)C(=O)Nc2ccccc21", "note": "(configuration not stated)", "Potency": "inconclusive: 11.7 µM [inhibitor, single point]"}, {"smiles": "CCOC(=O)c1c(NC(=O)Cn2c(C)nc3ccccc32)sc2c1CCC2", "Potency": "inconclusive: 13.1 µM [inhibitor, single point]"}, {"smiles": "O=C(C1CC1(c1ccccc1)c1ccccc1)N1CCOCC1", "note": "(configuration not stated)", "Potency": "inconclusive: 0.657 µM [inhibitor, full curve, poor fit]"}, {"smiles": "COc1ccccc1N1CCN(S(=O)(=O)c2c(C)sc3ncn(CC(=O)NCCN(C)C)c(=O)c23)CC1", "Potency": "inactive"}, {"smiles": "Cc1ccc([N+](=O)[O-])c(OCCN2CCCCCC2)c1", "Potency": "inactive"}, {"smiles": "O=C1CCCc2ccccc2N1Cc1ccc(Cl)cc1Cl", "Potency": "inconclusive: 16.5 µM [inhibitor, partial curve, poor fit]"}, {"smiles": "Cc1cc(OCC(=O)NCC(C)C)cc(C)c1Br", "Potency": "inconclusive: 18.5 µM [inhibitor, single point]"}, {"smiles": "CCO[C@H]1OC(C(=O)NCc2nc3ccccc3[nH]2)=C[C@@H](c2csc3ccccc23)[C@@H]1CCCO", "Potency": "active: 10.4 µM"}, {"smiles": "CCOC(=O)C1CCN(C(=O)C2CCN(S(=O)(=O)c3ccc4c(c3)CC(C)N4C(C)=O)CC2)CC1", "note": "(configuration not stated)", "Potency": "inconclusive: 0.738 µM [inhibitor, full curve]"}, {"smiles": "COc1cc(/C=C/C(=O)OCC(=O)N2CCCc3ccccc32)ccc1OCC#N", "Potency": "inconclusive: 0.0041 µM [inhibitor, full curve, poor fit]"}, {"smiles": "CCOC(=O)CC1COCCN1C(=O)c1ccc2oc(Cc3ccccc3)nc2c1", "note": "(configuration not stated)", "Potency": "inactive"}, {"smiles": "CCOC(=O)C(=CNNc1cccc(Cl)c1)C(=O)OCC", "Potency": "inconclusive: 14.7 µM [inhibitor, single point]"}, {"smiles": "CCOc1ccc(S(=O)(=O)N2CCN(C(=S)NC3CC3)CC2)cc1", "Potency": "inconclusive: 10.4 µM [inhibitor, single point]"}]}]}
